Literature values as cited in patent publication US7205011B2, “Anti-inflammatory activity of a specific turmeric extract” (Board of Regents, Acting for and on behalf of, University …, priority 2003, dated 2007).
Some entries share one result that the patent states for a list of compounds. At least one compound was matched to its structure with a doubt left. Some compounds share one range, which may span the group rather than tell each member.

System: PGE2 production
Details: Hong et al. 2002; Lee et al. 2002; sesquiterpenoids from Curcuma zedoaria and Curcuma xanthorrhiza; cited from earlier work

IC50 for inhibition of PGE2 production, 2 to 5 µg/mL:
CC(C)=CC(=O)CC(C)c1ccc(C)cc1 (stereo not drawn) [ar-tumerone]
CC(C)=CCC[C@@H](C)c1ccc(C)c(O)c1 [xanthorrhizol]
C=C1C=CC(C(C)CC(=O)C=C(C)C)CC1 (stereo not drawn) [β-tumerone]
